Data set [1] has as its target T1, Engrailed 2 full length (En2, ChEn2) (Gallus gallus) (UniProt Q05917).
T1 sequence (looked up): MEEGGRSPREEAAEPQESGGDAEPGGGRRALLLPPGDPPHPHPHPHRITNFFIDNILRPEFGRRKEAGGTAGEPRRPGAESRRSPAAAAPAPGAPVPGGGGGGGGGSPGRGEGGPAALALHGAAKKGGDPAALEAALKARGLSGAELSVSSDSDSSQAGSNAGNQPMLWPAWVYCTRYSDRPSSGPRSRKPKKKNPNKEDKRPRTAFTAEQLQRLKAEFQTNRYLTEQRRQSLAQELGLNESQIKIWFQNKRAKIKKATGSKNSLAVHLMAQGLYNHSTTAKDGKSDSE
Kind of data set: EMSA. The note with it: partially purified En2; fragment shifts; purified recombinant protein; label: 32P. A general note: Mobility shift assays separate free from complexed probe on a gel.

For data set [2], the target named is EnHD (Engrailed 2 homeodomain, 60 aa) (Gallus gallus) (UniProt Q05917). Briefly: footprint. To be noted: DNase I, 5 specific footprints; 2.5 mM MgCl2, on ice; purified recombinant protein; label: 32P.

Construct, isoform or probe ends are uncertain for at least one entry. For some of these results: Where a protein sequence is shown, tags need not be part of it.

Consider “CTGAATTGCAACCTGCCCTGCCCCTTGTTTAGCTTCCCAAGTACTGGGCTTACAGTAGACTTGCACTGTAACACAAGCCTAGATAATAAACTTCTTTTGTGATATGTATGCAGTCTGTAACAATACAAAGTGGATTATGATGCACATTAAAATTCTGATACTGCTGTAGTGACCAAAACTATCTTTTCTTGGTGTCTTTAATTCAAATGGCTCATTTAATGCTTCATTTTAACTACCTGTAAGGGCTGCACCCTAAGCATTTACAGTTCATTTTAGTTCATAGGCTGCTTATGTAGACATGGTAACTTTATGAGTTAACAAGGATGCAGCCAGTAATAAAGGGTGGACTTGCCTTTGCATTCATAATGTAATATATTATCTTTAATTCATTACTCCATGGCAACACTGAAGTCGGTGTCTAAGACAGTGAGGACACAGCTACACTGCGTGTCTCTGTTTTGTGCTTGGCATTGAGCAAAGGCACTGGTAAGGGACCCAAAATGATAGCTCCTCTCTACATTCTCAGAGCGGATACCTAAGTAACAAGTGGCTTAAACACTCCATGAAGAAATATGAAATTATAACCAAGGAAAGAACCCTGAACAATACTCAAATAATTAGTCATTAAAAAAAATAAAGGCATATGAGCCAGCCTGG (double strand) [BPAG1e promoter BstNI fragment -2226 to -1569]”, for which the binding result in data set [1] and in data set [2] was “binds” each time.

On to “CTTAAATATGCTGTGGCGTGATATGCAATGCACTGCAAATACTATGCTGATAACTATTCTAAAGAATCCTGCCTACAGCCATTCATTTGCTTGCTGAGGTTTGCCTTTTGTAGCCAGCATTAAAGCCCTGCAAGTACGGGCAGAGCAGGACGATTGGGCGTCACTGGGAAAGATATGCCAAATATTTTCACCAAGAGTCATCCAGCTTCAACCACCTAAAAAACAACTCAGGTACACAGGAGCCCGGGCAGCACCAGTGAAGGTAATGCTATCAATACCAAGCACCAACCAGAAACACAAAGCTCAGATCACACAGCTGGACAAATGCTGGACAGCAAGCAGATCCCACGTGCTTCCTAACACAAGGTAAAATGCTGGACTAATCAATAAGTCAATAATCAATAAGCAAGCACACAAATTTAATGAGAAACCAAATCTGTTTCCATTTGACCATCTCTTCCATTGTTCACCGCATTAAATTAACTGGAAAAATGTTCAATTACTTTTTCTTTGTGTGATAAACTCTCTCTCCTAAGCCACTACTGTTTGGATTCTAAAAGCCAAAGACTCCACGCAGAATATTGGCTCAGTAACTAAGTGTGAATGTGTCTGGGCTTGCTTCTTCTTCACACAGACTAG (double strand) [BPAG1e promoter BstNI fragment -810 to -89]”, for which the binding result in data set [1] and in data set [2] was “binds” each time.

The values are drawn from US6656735.
